Our source for the AC50 values is PubChem BioAssay AID493014 (National Center for Advancing Translational Sciences (NCATS), 2011).

A short description of the test: qHTS Assay to Find Inhibitors of Chronic Active B-Cell Receptor Signaling. As to conditions: ABC-DLBCL IkBa-CBG/CBR reporter, luminescence ratio (green luciferase fused to IkBa over red control in TMD8 lymphoma cells), 4 h. In outline:
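Concentration-response series (up to 46 uM) were applied to TMD8 dual-reporter cells for 4 h at 37C with doxycycline. Green/red ratio, after filter-overlap correction, defined %Activity; red signal alone was normalised to basal cells and zero luminescence.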

[1] abbreviates: measured here: CBR red luminescence, cell number.
The mark [2] stands for this setting: measured here: IkBa-CBG green luminescence.

Molecules are shown by their SMILES. This is one part of the list. These are further read-outs of the screen, such as a control signal, another cell line or another target. No call is given for them. The list favours compounds with an active or inconclusive main result. Potencies come from curve fits of mixed quality, noted in brackets.

Take `O=C(N/N=C/c1ccc(-c2ccc(Cl)c(C(=O)O)c2)o1)c1cc2c(ccc3ccccc32)o1`: the AC50 under setting [1] is 1.26 µM [falling, full curve].

On to `CCC(C)(C)NC(=O)CN(C(=O)c1ccc(N2CCCC2)nc1)c1ccc(F)cc1`, for which the concentration at half-maximal activity (AC50) under setting [1] is 35.5 µM [falling, single point]. On the same count and under the same terms, then `Cc1c(-c2ncn[nH]2)sc(C#N)c1-c1ccccc1`, with 35.5 µM [rising, single point]; and `COc1ccc(C2(C)NC(=O)N(Cc3cc(Cl)cc4c3OCOC4)C2=O)cc1OC` (stereo not drawn), with 5.62 µM [rising, single point]; and `COc1ccc(NC(=O)CCN2CCN(S(=O)(=O)c3cc(Cl)ccc3OC)CC2)cc1`, with 3.66 µM [rising, partial curve]. Same read-out and setting: next, `Cc1ccccc1Nc1nc(N)nc(COC(=O)c2ccc(S(=O)(=O)N(C)C)cc2)n1`: 20.6 µM [rising, single point]; `O=C(NNC(=O)c1ccc(Cl)s1)c1csc(N2CCOCC2)n1`: 10.3 µM [falling, partial curve]. On to `O=C1/C(=C/c2ccc(O)cc2)COc2ccccc21`, for which the AC50 under setting [1] is 4.47 µM [rising, single point]. Same read-out and setting: next, `O=C(Cn1cc(S(=O)(=O)Cc2ccccc2F)c2ccccc21)N1CCOCC1`: 0.251 µM [falling, full curve, poor fit]; `NC(=O)COc1ccc(NC(=O)OCc2ccccc2)cc1`: 0.58 µM [rising, partial curve, poor fit]; `COCc1nc(-c2cc(OC)c(OC)c(OC)c2)no1`: 17.8 µM [rising, partial curve, poor fit].

As to `COc1ccc(Nc2nc(-c3ccccc3)cs2)cc1`, the AC50 under setting [1] was 20.6 µM [falling, single point]. On the same count and under the same terms, next, `O=[N+]([O-])/C(N=Nc1ccccc1)=N\Nc1ccccc1`: 17.8 µM [rising, single point]; `O=C(c1ccc(-c2ccccc2)c(F)c1)C1CCCN(C(=O)c2cncs2)C1` (stereo not drawn): 0.794 µM [rising, partial curve, poor fit]. For `Cc1cc(C)n(S(=O)(=O)c2cc(C(=O)O)c(Cl)cc2Cl)n1`, the concentration at half-maximal activity (AC50) runs as follows: under setting [1], 29.1 µM [rising, single point]; under setting [2], 0.231 µM [rising, full curve, poor fit]. For `Cc1cc(C(=O)N(C)C)sc1-c1ccccc1`, the AC50 under setting [1] was 4.61 µM [rising, full curve]. On the same count and under the same terms, next, `COc1cc2[nH]c(C(=O)N3CCC(Cc4ccccc4)CC3)cc2c(OC)c1OC`: 35.5 µM [falling, single point]; `Cc1cc(Cl)ccc1OC(C)C(=O)NC(C)C1CCCO1` (stereo not drawn): 15.8 µM [falling, single point]. The same measure, in the same setting: then `O=C(Cc1ccccc1[N+](=O)[O-])NCCCc1ccccc1`, with 7.94 µM [rising, partial curve, poor fit]. Consider `O=C(Nc1ccc(Cl)cn1)c1cccc(F)c1`, for which, under setting [1], the concentration at half-maximal activity (AC50) is 8.91 µM [falling, partial curve, poor fit]. Still for that read-out and setting: then `S=C(Nc1cccc(Br)c1)c1ccccc1`, with 0.366 µM [rising, full curve, poor fit]. As to `Cc1ccccc1NC(=O)CSC(N)=O`, under setting [1], the AC50 was 6.51 µM [rising, single point].

Take `COc1ccccc1-c1ccc(SCc2ccccc2)nn1`: the concentration at half-maximal activity (AC50) under setting [1] is 11.2 µM [falling, partial curve]. In the case of `CCn1c2ccccc2c2cc(NC(=O)CSc3nnc(C4CC4)n3Cc3ccco3)ccc21`, the AC50 was 6.51 µM [falling, single point] under setting [1] and 29.1 µM [falling, single point] under setting [2]. Turning to `CCN(CC)C(=O)c1sc(N)c(C(=O)OC(C)C)c1C`, the AC50 is 9.2 µM [falling, partial curve, poor fit] under setting [1] and 1.3 µM [rising, full curve, poor fit] under setting [2].

For `N/C(=N\OC(=O)c1ccc(Cl)cc1)c1ccccn1`, the concentration at half-maximal activity (AC50) under setting [1] was 10 µM [falling, partial curve, poor fit].

For the molecule `COCCN(C(=O)COC(=O)c1cc(C)n(-c2ccccc2)c1C)c1c(N)n(Cc2ccccc2)c(=O)[nH]c1=O`, under setting [1], the AC50 was 13 µM [rising, partial curve]. On the same count and under the same terms, next, `CC(C(=O)N1CCc2ccccc2C1)N1C(=O)c2ccccc2C1=O` (stereo not drawn): 0.631 µM [falling, full curve, poor fit]. Consider `CCn1c(SCC(=O)Nc2ccc(OC)c(OC)c2)nc2c(c1=O)SCC2`, for which the AC50 under setting [1] is 35.5 µM [falling, single point]. The same measure, in the same setting: next, `O=C(Cc1cccs1)Nc1ccc(Cl)cc1`: 0.291 µM [rising, partial curve, poor fit]; `CCCCC(=O)Nc1ccc(NC(=O)C(C)C)cn1`: 12.6 µM [rising, single point]. Take `COC(=O)CSc1nc(C)cc(Oc2ccccc2)n1`: under setting [1], the AC50 is 23.1 µM [rising, partial curve, poor fit]. Still for that read-out and setting: then `CCN(C(=O)COC(=O)CNC(=O)c1ccc2ccccc2c1)C1CCS(=O)(=O)C1` (stereo not drawn), with 15.8 µM [falling, single point]; and `COc1cc(C(c2sc3nc(C)nn3c2O)N2CCC3(CC2)OCCO3)cc(OC)c1OC` (stereo not drawn), with 0.92 µM [rising, full curve, poor fit]. Same read-out and setting: then `Cc1[nH]c2ccc(F)cc2c1CCN(Cc1ccncc1)C(=S)Nc1cccc(F)c1`, with 35.5 µM [falling, single point]; and `Cn1cccc1/C=N\NC(=O)c1cncc(Br)c1`, with 35.5 µM [falling, single point]; and `COc1ccccc1CNS(=O)(=O)c1ccc2c(c1)CC(C)N2C(=O)C1CCC1` (stereo not drawn), with 35.5 µM [falling, single point]. For `Cc1c(C(=O)NCCCN2CCCC2=O)oc2ccc(S(=O)(=O)N3CCOCC3)cc12`, under setting [1], the AC50 was 20.6 µM [falling, single point].

Regarding `COCCOCC(O)CN1CCN(c2ccccc2)CC1` (stereo not drawn), the AC50 under setting [1] is 6.51 µM [falling, single point].

Take `Cc1nc(NC(=O)c2ccccc2O)sc1C`: the AC50 under setting [1] is 2.24 µM [falling, partial curve, poor fit].

With `Cn1c(=O)c2c(O)c(C=Nc3ccc(F)cc3)c(=O)n(C)c2n(C)c1=O`, the half-maximal activity concentration (AC50) under setting [1] is 3.16 µM [rising, single point].

Turning to `OC(CNCCc1ccccc1)COc1ccc(OCC(O)CNCCc2ccccc2)cc1` (stereo not drawn), under setting [1], the half-maximal activity concentration (AC50) is 11.2 µM [falling, partial curve, poor fit]. The same measure, in the same setting: then `CCN(CC(=O)NCc1cccs1)C(=O)CCOc1ccccc1`, with 29.1 µM [rising, single point].

As to `COc1ccc(C2c3c(ncn(CCCO)c3=N)Oc3ccc4ccccc4c32)cc1` (stereo not drawn), the concentration at half-maximal activity (AC50) by setting is: under setting [1], 14.1 µM [falling, single point]; under setting [2], 35.5 µM [rising, partial curve, poor fit]. On to `Cc1ccc2c(c1)COc1c3ccc(C(=O)O)cc3nn1-2`, for which the concentration at half-maximal activity (AC50) under setting [1] was 7.94 µM [falling, partial curve, poor fit]. Same read-out and setting: next, `O=C(Nc1ccc(N2CCOCC2)c(F)c1)c1cccs1`: 14.1 µM [falling, single point]; `O=C(Nc1ccccc1)c1ccc2ccccc2n1`: 22.4 µM [falling, single point]; `Cc1cc(S(=O)(=O)NCC(C)C)ccc1OCC(=O)NCc1ccco1`: 0.631 µM [rising, full curve, poor fit].

Consider `COc1ccc(-n2c(N)c(C(=O)NCc3ccco3)c3nc4ccccc4nc32)cc1`, for which the AC50 under setting [1] was 5.62 µM [falling, partial curve]. On the same count and under the same terms, next, `O=C(CCc1ccccc1)NC(=S)Nc1ccc2c(c1)C(=O)OC2`: 35.5 µM [rising, single point]. On to `CN(C(=O)CSc1nc2c(c(=O)[nH]1)CCC2)c1ccccc1`, for which the half-maximal activity concentration (AC50) under setting [2] was 6.31 µM [rising, full curve, poor fit].

Take `CCOc1ccc(N(CC)C(=O)COc2cc(=O)n(CC)c3ccccc23)cc1`: the AC50 under setting [1] was 20.6 µM [falling, single point].

As to `Nc1nc(F)nc2c1ncn2[C@@H]1O[C@H](CO)[C@@H](O)[C@@H]1O`, the half-maximal activity concentration (AC50) under setting [1] was 20.6 µM [rising, single point].

Regarding `CC1CCc2sc(C(=O)NC(C)C3CCCO3)cc2C1` (stereo not drawn), under setting [1], the half-maximal activity concentration (AC50) is 6.31 µM [falling, partial curve, poor fit]. Still for that read-out and setting: then `Cc1ccc(CN(C)Cc2cc(=O)oc3cc(C)c(Cl)cc23)cc1`, with 5.01 µM [rising, full curve, poor fit].

Regarding `COc1ccccc1-c1ccc(=O)n(CC(=O)Nc2ccc(C(=O)N3CCCC3)cc2)n1`, under setting [1], the AC50 was 11.2 µM [rising, partial curve, poor fit]. On the same count and under the same terms, next, `Cc1c(OCC(F)(F)F)ccnc1CS(=O)c1nc2ccccc2[nH]1` (stereo not drawn): 3.98 µM [rising, partial curve, poor fit]; `CCc1ccccc1NC1=CC(=O)CC(C)(C)C1`: 28.2 µM [rising, single point]. With `CCN(CC)S(=O)(=O)c1ccc(NC(=O)C2c3ccccc3Oc3ccccc32)cc1`, the half-maximal activity concentration (AC50) under setting [1] was 20.6 µM [rising, partial curve, poor fit].

As for `COc1cccc2sc(NN)nc12`, under setting [1], the AC50 is 10 µM [falling, partial curve, poor fit]. On the same count and under the same terms, next, `O=C(c1cccc(F)c1)N1CCN(c2ccc([N+](=O)[O-])c3cccnc23)CC1`: 12.6 µM [rising, partial curve, poor fit]; `COc1ccccc1NC(=O)CSc1nc2ccccc2cc1Cc1ccccc1`: 3.55 µM [falling, full curve].

As for `CC(C)Nc1nc(Cl)nc(NC2CCCCC2)n1`, the half-maximal activity concentration (AC50) under setting [1] is 15.8 µM [falling, partial curve, poor fit]. Same read-out and setting: next, `O=C(Nc1ccc2[nH]ncc2c1)c1cccc(F)c1`: 35.5 µM [falling, single point].
